Results as given in patent publication US10328051B2, “Proline or proline derivatives for the treatment of dementia” (priority 2014, dated 2019).

Test: Pre-dose endogenous plasma concentrations of CHP and THP in healthy volunteers (Study 0202-71), HPLC
Assay type: in vivo, human
Conditions: healthy subjects; for Mean endogenous concentration in plasma, pre-dose: across all dose groups, 24 readings
Experimental: Example 8—Study Title: Determination of Pre-Dose Endogenous Concentrations of CHP in Healthy Volunteers (Study 0202 71) (FIG. 11)
According to the examples in this invention, the following ICH-GCP Clinical Phase I study has been performed in healthy subjects for the assessment of the pharmacokinetic profiles of CHP and THP and the determination of the pre-dose endogenous CHP blood plasma concentrations, which were measured for all healthy volunteers directly before CHP administration using a validated, sensitive and selective HPLC bioanalytical method.
Example 9—Study Title: Determination of Pre-Dose Endogenous Concentrations of THP in Healthy Volunteers (Study 0202 71)—(FIG. 11)
According to the examples in this invention, the following ICH-GCP Clinical Phase I study has been performed in healthy volunteers for the assessment of the pharmacokinetic profiles of THP and to determine the pre-dose endogenous THP plasma concentrations, which were measured for all healthy volunteers directly before CHP administration using a validated, sensitive and selective HPLC bioanalytical method. This was performed before both CHP administrations (i.e. for 2.0 g and 3.0 g). • The mean endogenous THP concentration in healthy subjects, calculated across all dose groups, was 0.97±1.15 μg CHP/ml of plasma.

**Q.** For `O=C(O)[C@@H]1C[C@H](O)CN1` [CHP, cis-4-hydroxy-L-proline], which “Mean endogenous concentration in plasma, pre-dose” value is on record?
**A.** Its value is 0.71±0.56 μg CHP/ml of plasma.

**Q.** And the “Endogenous CHP concentration in blood (approximately 2-fold the plasma concentration)” value (pre-dose)?
**A.** The value was 1.420±1.12 μg CHP/ml blood.

**Q.** And the “Endogenous CHP concentration in blood, molar equivalent” value (pre-dose)?
**A.** The value was 10.834±8.54 μM CHP/ml blood.

**Q.** For `O=C(O)[C@@H]1C[C@@H](O)CN1` [THP, trans-4-hydroxy-L-proline], which “Pre-dose endogenous concentration as a percentage of the average Cmax” value is on record?
**A.** Its value is 8.1%±9.6%.

**Q.** What about the “Mean endogenous concentration in plasma, pre-dose” value of the same compound?
**A.** The value was 0.97±1.15 μg CHP/ml of plasma.

**Q.** And the “Endogenous THP concentration in blood (approximately 2-fold the plasma concentration)” value (pre-dose)?
**A.** Its value is 1.94±2.3 μg THP/ml blood.

**Q.** And the “Endogenous THP concentration in blood, molar equivalent” value (pre-dose)?
**A.** Its value is 14.80±17.5 μM THP/ml blood.
